Measured values reported in paper doi:10.1101/2020.06.04.133876.
Results are given in words; binding and its absence hold for the method and conditions named. In cells and extracts the contact can be indirect. Some results given as binding are weak or reduced against the parent protein; the word gives no strength.

The chains behind the UniProt entries cited, without tags or fusion partners.
UniProt P60953: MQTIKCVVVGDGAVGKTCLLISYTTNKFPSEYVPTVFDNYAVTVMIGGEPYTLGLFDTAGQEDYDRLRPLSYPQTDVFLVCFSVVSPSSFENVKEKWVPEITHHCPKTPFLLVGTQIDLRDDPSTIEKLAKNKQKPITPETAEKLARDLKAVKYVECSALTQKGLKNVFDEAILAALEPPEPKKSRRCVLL
UniProt P61586: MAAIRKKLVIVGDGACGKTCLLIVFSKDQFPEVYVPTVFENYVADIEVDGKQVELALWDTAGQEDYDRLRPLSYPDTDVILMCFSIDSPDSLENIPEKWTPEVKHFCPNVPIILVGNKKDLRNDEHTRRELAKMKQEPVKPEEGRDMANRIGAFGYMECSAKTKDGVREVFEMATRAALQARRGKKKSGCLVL

Assays:
[1] = target: full-length (FL) OtDUB, Flag-tagged, expressed in HeLa cells (Orientia tsutsugamushi (Ikeda isolate)) (UniProt B3CVM3); assay: co-IP
[2] = target: OtDUB_(1-675), Flag-tagged, expressed in HeLa cells (Orientia tsutsugamushi (Ikeda isolate)) (UniProt B3CVM3); assay: co-IP

Cdc42 (endogenous, HeLa) (from UniProt P60953 1-191)
binding [1]: binds | binding [2]: no binding

RhoA (endogenous, HeLa) (from UniProt P61586 1-193)
binding [1]: no binding
